PubChem BioAssay AID1259308, NCATS | 2017

Aim: 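Knock-downs that increase output of a recombinant reporter protein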 (primary screen)
System: human HEK293 embryonic kidney cells stably expressing firefly luciferase (HEK-CMV-Luc2-Hygro)
Reagent: single siRNA against human genes, 0.8 pmol siRNA per well
Time to read-out: 72 h
Measured: 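Luciferase light (ONE-Glo) measured on one replicate plate set and viability (CellTiter-Glo) on the other, scaled to a negative control siRNA, with robust z-scores and luciferase per cell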
Direction: total luciferase, z-score: higher = more reporter protein produced
Rule for the call: 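An siRNA counts as active if its total luciferase robust z-score exceeds 3; genes with two or more such siRNAs out of three were retested with fresh siRNAs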
Meaning of the calls: active = raised luciferase; inactive = no rise
Here is one part, drawn at random, of about 59,000 deposited reagents. Of all reagents, about 1,510 (2.6%) got an active call. 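Calls use total luciferase alone and ignore viability, so some active siRNAs may act by altering cell number.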 Further read-outs or replicates are left out here. No sequences are given here.

total luciferase, z-score, by gene and reagent
PECAM1 (GeneID 5175): SID160714088 -2.13 inactive; SID160714089 0.57 inactive; SID160714090 -0.774 inactive
METTL15P3 (GeneID 729650): SID160727140 -1.07 inactive; SID160734592 2.9 inactive; SID160773016 1.42 inactive
IQSEC2 (GeneID 23096): SID160732740 0.621 inactive; SID160735441 0.649 inactive; SID160735442 -1.76 inactive
OR6B3 (GeneID 150681): SID160759000 1.57 inactive; SID160759001 0.996 inactive; SID160759002 0.727 inactive
RPS23P8 (GeneID 653658): SID160726406 -0.782 inactive; SID160771042 -0.711 inactive; SID160771043 -2.63 inactive
C18orf32 (GeneID 497661): SID160768291 1.76 inactive; SID160768292 -0.135 inactive; SID160768293 -2.53 inactive
OSTM1 (GeneID 28962): SID160738878 0.391 inactive; SID160738879 0.0144 inactive; SID160738880 -0.106 inactive
NPIPB3 (GeneID 23117): SID160735489 -0.56 inactive; SID160735490 0.855 inactive; SID160735491 0.588 inactive
AQP9 (GeneID 366): SID160719348 -1.55 inactive; SID160719358 -0.0246 inactive; SID160731147 0.443 inactive
MTHFD2 (GeneID 10797): SID160729242 -0.701 inactive; SID160729243 0.266 inactive; SID160729244 0.00385 inactive
SNX19 (GeneID 399979): SID160766914 1.02 inactive; SID160766915 0.776 inactive; SID160766916 2.01 inactive
CRYAB (GeneID 1410): SID160748487 -0.691 inactive; SID160748497 2.27 inactive; SID160748507 1.3 inactive
CDH16 (GeneID 1014): SID160740769 0.922 inactive; SID160740780 -0.16 inactive; SID160740791 -0.145 inactive

5 entries from above, sorted by “total luciferase, z-score”, lowest first:
Gene	PubChem SID	total luciferase, z-score	Call
RPS23P8 (GeneID 653658)	SID160771043	-2.63	inactive
C18orf32 (GeneID 497661)	SID160768293	-2.53	inactive
C18orf32 (GeneID 497661)	SID160768292	-0.135	inactive
OSTM1 (GeneID 28962)	SID160738878	0.391	inactive
C18orf32 (GeneID 497661)	SID160768291	1.76	inactive
